# Screening data, single-dose tests

The chains behind the UniProt entries cited, without tags or fusion partners. Residues count along the entry.
UniProt P9WNZ1, whole entry: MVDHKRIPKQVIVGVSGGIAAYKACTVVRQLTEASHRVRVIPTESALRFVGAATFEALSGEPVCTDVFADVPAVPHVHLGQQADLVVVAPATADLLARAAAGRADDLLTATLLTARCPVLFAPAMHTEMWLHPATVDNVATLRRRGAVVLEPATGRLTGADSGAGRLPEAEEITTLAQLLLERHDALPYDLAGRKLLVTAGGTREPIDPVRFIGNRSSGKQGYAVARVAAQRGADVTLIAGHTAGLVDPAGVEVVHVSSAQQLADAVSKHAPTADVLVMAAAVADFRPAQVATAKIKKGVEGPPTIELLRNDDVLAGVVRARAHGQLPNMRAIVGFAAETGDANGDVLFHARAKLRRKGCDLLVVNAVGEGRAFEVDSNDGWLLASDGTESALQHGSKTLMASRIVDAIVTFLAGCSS
UniProt P9WFT3, whole entry: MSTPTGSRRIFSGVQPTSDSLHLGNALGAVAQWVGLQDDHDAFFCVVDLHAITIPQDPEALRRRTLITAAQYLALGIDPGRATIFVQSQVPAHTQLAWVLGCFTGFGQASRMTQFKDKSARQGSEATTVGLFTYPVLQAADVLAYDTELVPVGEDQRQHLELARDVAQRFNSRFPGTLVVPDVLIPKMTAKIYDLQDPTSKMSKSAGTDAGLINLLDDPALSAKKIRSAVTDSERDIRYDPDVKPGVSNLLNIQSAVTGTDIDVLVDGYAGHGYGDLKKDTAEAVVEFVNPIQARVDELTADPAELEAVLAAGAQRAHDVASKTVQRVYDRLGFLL
UniProt P9WPC5, whole entry: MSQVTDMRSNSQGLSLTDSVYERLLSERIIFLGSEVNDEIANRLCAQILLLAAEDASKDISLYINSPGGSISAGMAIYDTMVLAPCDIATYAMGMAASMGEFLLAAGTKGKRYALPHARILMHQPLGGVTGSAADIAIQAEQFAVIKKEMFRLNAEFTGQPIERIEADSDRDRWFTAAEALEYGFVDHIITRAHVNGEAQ
UniProt P9WPC3, whole entry partner: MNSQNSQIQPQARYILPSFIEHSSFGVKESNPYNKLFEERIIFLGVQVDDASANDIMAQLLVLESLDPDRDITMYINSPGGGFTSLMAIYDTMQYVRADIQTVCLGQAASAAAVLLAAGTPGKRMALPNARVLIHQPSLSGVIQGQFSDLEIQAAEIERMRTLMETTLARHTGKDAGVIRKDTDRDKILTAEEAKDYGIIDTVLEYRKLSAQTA
UniProt A4I591, 1-473: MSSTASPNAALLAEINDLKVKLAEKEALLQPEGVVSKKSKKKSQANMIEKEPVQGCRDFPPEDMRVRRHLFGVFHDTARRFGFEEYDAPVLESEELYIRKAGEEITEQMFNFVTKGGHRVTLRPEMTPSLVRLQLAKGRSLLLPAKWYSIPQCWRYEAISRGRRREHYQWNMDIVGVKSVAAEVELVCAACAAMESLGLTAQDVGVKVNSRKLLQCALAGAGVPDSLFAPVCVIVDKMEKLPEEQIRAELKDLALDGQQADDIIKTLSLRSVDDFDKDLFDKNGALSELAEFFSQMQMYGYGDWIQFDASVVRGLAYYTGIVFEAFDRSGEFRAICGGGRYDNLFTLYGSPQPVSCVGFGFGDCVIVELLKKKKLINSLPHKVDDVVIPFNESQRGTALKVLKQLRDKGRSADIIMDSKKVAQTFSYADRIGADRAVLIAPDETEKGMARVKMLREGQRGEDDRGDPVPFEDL
UniProt Q4DA54, 1-478: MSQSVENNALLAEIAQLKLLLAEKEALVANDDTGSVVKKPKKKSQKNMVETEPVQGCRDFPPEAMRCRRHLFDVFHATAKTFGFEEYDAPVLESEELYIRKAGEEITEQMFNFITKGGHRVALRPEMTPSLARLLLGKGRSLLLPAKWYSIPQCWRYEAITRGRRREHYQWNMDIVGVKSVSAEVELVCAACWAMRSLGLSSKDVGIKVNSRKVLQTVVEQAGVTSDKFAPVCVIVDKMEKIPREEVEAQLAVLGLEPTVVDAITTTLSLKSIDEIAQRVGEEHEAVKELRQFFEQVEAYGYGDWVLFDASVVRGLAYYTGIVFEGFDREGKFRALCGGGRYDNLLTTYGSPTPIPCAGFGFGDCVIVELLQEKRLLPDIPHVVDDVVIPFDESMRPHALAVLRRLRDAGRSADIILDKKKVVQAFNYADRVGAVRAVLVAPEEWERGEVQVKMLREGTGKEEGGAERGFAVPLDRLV

Source: ChEMBL document CHEMBL3988442, “University of Dundee, Small-Polar-MMV Screening Library” (2021).

A: 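Coenzyme A biosynthesis protein CoaBC, Mycobacterium tuberculosis (UniProt P9WNZ1). Enzyme assay of CoaBC with a phosphate dye (Biomol Green) read at 650 nm. Concentration: 30 µM. Higher reads as stronger inhibition, judged from the few compounds that gave an IC50. Most strong results did not repeat in a second test. About 67,000 compounds were tested under these conditions; 0.06% (about 40) showed 50% or more at least once.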
B: 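Enzyme assay of tryptophanyl-tRNA synthetase; the read-out is not stated. Target: Tryptophan-tRNA ligase, Mycobacterium tuberculosis (UniProt P9WFT3). Concentration: 10 µM. Direction is not recorded; retested compounds ran higher, which suggests that high means inhibition. About 65,000 compounds were tested under these conditions; 0.098% (about 64) showed 50% or more at least once.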
C: 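Protease assay of ClpP1P2, read by the AMC dye that it sets free. Target: ClpP1P2, Mycobacterium tuberculosis (UniProt P9WPC5 and UniProt P9WPC3). Tested at 50 µM. Direction is inferred from only a few compounds that gave an IC50; most scored high, so higher reads as stronger inhibition. Most other retested compounds had strongly negative values. Of about 69,000 compounds tested this way, about 10 (0.015%) reached 50% or more in at least one test.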
D: 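Histidine-tRNA ligase, Leishmania infantum (UniProt A4I591). Enzyme assay of histidyl-tRNA synthetase; the read-out is not stated. Concentration: 30 µM. Higher reads as stronger inhibition (inferred: compounds with an IC50 in retests scored well above the rest). The assay is labelled LdHisRS but filed under L. infantum. About 69,000 compounds were tested under these conditions; 0.6% (about 410) showed 50% or more at least once.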
E: 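Histidine-tRNA ligase, Trypanosoma cruzi CL Brener (UniProt Q4DA54). Enzyme assay of histidyl-tRNA synthetase; the read-out is not stated. Concentration: 30 µM. The record gives no direction; compounds that gave an IC50 in retests scored well above the rest, so higher reads as stronger inhibition. Size under these conditions: about 69,000 compounds, about 31 of them at 50% or above in at least one test.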

Values are the deposited “Percent Effect”, in %.
The controls that fix the scale are not given in the record; negative values are as filed.
The compounds are a random part of those screened.
A dash means the value is not listed here; it may have been measured.

| Compound | A | B | C | D | E |
|---|---|---|---|---|---|
| `CCN1CC(CN(C)Cc2nc(-c3ccc(F)cc3F)oc2C)CC1=O` (stereo not drawn) | 6.446 | -3.524 | -15.42 | 18.37 | 8 |
| `CCc1nc(CC(=O)N2CCn3c(nnc3C(F)(F)F)C2)cs1` | 1.33 | -0.1572 | 8.482 | 15.2 | -1.901 |
| `CC(C(=O)NCC(C)(C)c1ccc(Br)cc1)n1cncn1` (stereo not drawn) | 10.36 | -2.877 | 14.33 | 15.29 | 13.07 |
| `O=C(NCC(=O)N1CCCC1)c1nc(Cc2c(Cl)cccc2Cl)no1` | -9.906 | 0.3079 | 9.918 | 16.48 | 7.216 |
| `O=C(c1cnc(Nc2ccccc2)nc1)N1CCS(=O)(=O)CC1` | 5.782 | -6.027 | 2.637 | 5 | 0 |
| `CCOc1ccc(S(=O)(=O)NCc2cccnc2N(C)C)cc1` | 7.198 | 0.7081 | 8.307 | 7.865 | 0 |
| `Cc1nccn1-c1nccnc1C1CCCN(C2CCCC2)C1` (stereo not drawn) | -20.58 | 10.25 | -8.358 | -4.196 | -0.565 |
| `CC(C)(C)NC(=O)CNc1ccc(Br)cn1` | 1.132 | 4.082 | -5.725 | 15.93 | 3.571 |
| `CC(C)N1CCO[C@H]2CN(C(=O)Cc3cccs3)C[C@H]21` | 4.303 | -5.672 | -6.765 | 6 | 6.897 |
| `Cc1ccc(CCC(=O)N2CCC(Nc3cccnn3)CC2)cc1` | 3.704 | -4.182 | -32.73 | 8.036 | 6.358 |
| `CN1C[C@@H](NC(=O)c2ccccc2)C[C@H]1c1nc(-c2cnccn2)no1` | 5.305 | 11.82 | -9.529 | 21.62 | 0.4975 |
| `CN1CC(C(=O)NCc2ccc(OCc3cccnc3)cc2)CC1=O` (stereo not drawn) | 7.911 | 8.956 | 0.3642 | 22.08 | -4.433 |
| `CCN(CC)c1ccc(-c2ccc(C)c(S(N)(=O)=O)c2)nn1` | 4.369 | -0.6274 | -4.672 | 9.639 | 4.972 |
| `c1coc(CN2CCO[C@@]3(CCC[C@@H]3COCc3nccs3)C2)c1` | 4.75 | -3.753 | -1.931 | 28 | 9.804 |
| `Cc1cc(-c2cc(F)ccc2C(=O)O)nc(C2CCCCN2C(C)C)n1` (stereo not drawn) | 3.632 | - | 17.4 | 12.37 | 2.222 |
| `O=C(c1ccncc1)N1CC[C@@H]2CN(C3CCOCC3)CCO[C@@H]2C1` | 6.559 | - | 1.51 | 7.921 | 0.5025 |
| `COCCS(=O)(=O)c1ncc(CN(C)CC(C)C)n1Cc1ccccc1` | 0.6165 | 3.003 | -18.25 | 6.452 | -0.8772 |
| `COc1ccc2cc(-c3n[nH]cc3CN3CCSCC3)ccc2c1` | -0.2484 | 1.486 | -15.92 | 3.175 | 1.538 |
| `CN1CCCC(c2ccnc(C(=O)NC3CC3)c2)C1` (stereo not drawn) | 2.676 | -0.6377 | -4.252 | -3.158 | 2.985 |
| `COc1ccc(OCCc2nnc(NC(C)=O)s2)cc1` | -1.155 | 2.332 | 4.155 | 8.621 | 4.348 |
| `CO[C@@H]1CCN(C(=O)c2ccccn2)[C@H]1Cc1ccccc1` | 0 | 0.8397 | 5.42 | 29.27 | 2.256 |
| `COc1ccc(CNc2ncc(-c3cc(C)no3)c(C(C)C)n2)cc1` | 3.186 | - | 1.979 | 7.292 | 5.319 |
| `COc1ccccc1OC1CN(C(=O)c2c(C)nc3ccc(C)cn23)C1` | -2.813 | 0 | -1.68 | 18.03 | 4.04 |
| `CNCc1cc(F)ccc1Oc1ccc(F)cc1F` | -0.8589 | - | 12.45 | 10.31 | 9.249 |
| `Cc1noc(-c2cccnc2N2CCN(c3cnn(C)c3)CC2)n1` | 8.055 | -3.631 | 4.113 | 11.4 | 1.724 |
| `CC(C)CN1CCO[C@H]2CCN(c3cnccn3)CC[C@@H]21` | 2.683 | - | -0.9901 | 15.09 | 8.889 |
| `Cc1ncnc2c1CCN(C(=O)c1cccc(F)c1)CC2` | -1.375 | -0.5339 | -1.245 | 5.405 | 3.483 |
| `Cn1cc(C[C@H]2[C@H](O)CCN2Cc2ccc3c(c2)OCO3)cn1` | 5 | -1.407 | -6.333 | 16 | 13.73 |
| `Fc1cnc(N2CC[C@@H]3O[C@H](COCc4ccccn4)CC[C@@H]32)nc1` | 9.572 | -3.787 | 0.736 | -52.63 | 9.195 |
| `O=C(C1=CCCC1)N1CCC[C@]2(C[C@@H](Oc3ncccc3F)CO2)C1` | 4.516 | -0.5757 | 5.605 | 15.24 | 0 |
| `COc1ccnc(CN2CCC=C(C(C)NC(C)=O)C2)c1OC` (stereo not drawn) | 1.22 | 1.204 | -5.673 | 9.6 | 0 |
| `CCC(NS(=O)(=O)N1CCOCC1)c1ccccc1OC` (stereo not drawn) | 4.024 | 0.1324 | 8.752 | 10.99 | 10.24 |
| `COc1ccc(OC)c(C2CCN(C(=O)CCc3n[nH]c(N)n3)C2)c1` (stereo not drawn) | 2.76 | 1.591 | -2.632 | 15.04 | 7.2 |
| `CC(C(=O)N1CCn2cncc2C1)N1C[C@@H](C)O[C@@H](C)C1` (stereo partly drawn) | 1.24 | -5.393 | 14.11 | 14.67 | 2.89 |
| `CNC(=O)CN1CCO[C@H]2CN(CC3CC3)C[C@H]21` | 0.6148 | 1.098 | -0.593 | 12 | -2.299 |
| `CC(C)(C)c1noc(CCC(=O)N(CC2CCOC2)C2CC2)n1` (stereo not drawn) | 3.926 | -4.941 | -2.323 | 2.74 | 0 |
| `O=C([C@@H]1COC[C@H]2CN(CC3CCCC3)C[C@H]21)N1CCOCC1` | - | 1.402 | -8.426 | 13.79 | 5.063 |
| `COc1ccc(CN2CCC3(CC2)CC(CC(=O)NC(C)C)CO3)cc1` (stereo not drawn) | 1.412 | -6.302 | 3.849 | 21.1 | 4.327 |
| `O=C(C1CC=CC1)N1C[C@H]2CN(Cc3ccncc3)C(=O)[C@H]2C1` | 3.094 | - | -2.154 | 0 | 1.508 |
| `CC(=O)N1CCc2ccc(NC(=O)c3cn(C)nn3)cc2C1` | 1.186 | 2.205 | -12.86 | 4.11 | 4 |
| `COCC(=O)N1CCN(C(=O)C2(c3ccc(C)c(OC)c3)CC2)CC1` | 11.82 | 2.825 | -6.349 | 5.479 | 1.622 |

The first 5 entries again:

* CCN1CC(CN(C)Cc2nc(-c3ccc(F)cc3F)oc2C)CC1=O (stereo not drawn) | A: 6.446%; B: -3.524%; C: -15.42%; D: 18.37%; E: 8%
* CCc1nc(CC(=O)N2CCn3c(nnc3C(F)(F)F)C2)cs1 | A: 1.33%; B: -0.1572%; C: 8.482%; D: 15.2%; E: -1.901%
* CC(C(=O)NCC(C)(C)c1ccc(Br)cc1)n1cncn1 (stereo not drawn) | A: 10.36%; B: -2.877%; C: 14.33%; D: 15.29%; E: 13.07%
* O=C(NCC(=O)N1CCCC1)c1nc(Cc2c(Cl)cccc2Cl)no1 | A: -9.906%; B: 0.3079%; C: 9.918%; D: 16.48%; E: 7.216%
* O=C(c1cnc(Nc2ccccc2)nc1)N1CCS(=O)(=O)CC1 | A: 5.782%; B: -6.027%; C: 2.637%; D: 5%; E: 0%